# Laboratory results from article PMC11011321.
# Chains of the proteins cited; added tags and fusions are not shown.
# UniProt P35222: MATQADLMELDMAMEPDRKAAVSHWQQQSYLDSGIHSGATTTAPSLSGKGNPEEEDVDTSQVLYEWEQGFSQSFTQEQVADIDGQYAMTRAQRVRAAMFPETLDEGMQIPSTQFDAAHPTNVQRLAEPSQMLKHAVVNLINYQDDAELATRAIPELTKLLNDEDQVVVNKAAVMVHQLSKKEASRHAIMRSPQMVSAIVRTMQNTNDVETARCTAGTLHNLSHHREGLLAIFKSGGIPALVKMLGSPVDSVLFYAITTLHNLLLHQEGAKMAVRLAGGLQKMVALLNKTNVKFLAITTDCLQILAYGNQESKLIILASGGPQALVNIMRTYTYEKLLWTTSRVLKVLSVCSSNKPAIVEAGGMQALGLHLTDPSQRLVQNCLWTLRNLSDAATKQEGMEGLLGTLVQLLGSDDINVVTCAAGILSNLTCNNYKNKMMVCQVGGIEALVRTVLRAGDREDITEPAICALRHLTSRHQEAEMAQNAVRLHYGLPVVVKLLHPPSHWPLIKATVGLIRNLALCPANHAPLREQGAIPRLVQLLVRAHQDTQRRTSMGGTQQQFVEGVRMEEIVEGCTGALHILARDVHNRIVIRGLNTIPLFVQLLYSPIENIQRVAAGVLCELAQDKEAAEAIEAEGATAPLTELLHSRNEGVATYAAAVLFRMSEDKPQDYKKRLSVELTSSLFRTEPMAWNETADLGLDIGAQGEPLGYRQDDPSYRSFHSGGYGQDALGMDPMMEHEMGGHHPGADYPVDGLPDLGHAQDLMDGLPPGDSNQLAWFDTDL
# UniProt Q9UQE7: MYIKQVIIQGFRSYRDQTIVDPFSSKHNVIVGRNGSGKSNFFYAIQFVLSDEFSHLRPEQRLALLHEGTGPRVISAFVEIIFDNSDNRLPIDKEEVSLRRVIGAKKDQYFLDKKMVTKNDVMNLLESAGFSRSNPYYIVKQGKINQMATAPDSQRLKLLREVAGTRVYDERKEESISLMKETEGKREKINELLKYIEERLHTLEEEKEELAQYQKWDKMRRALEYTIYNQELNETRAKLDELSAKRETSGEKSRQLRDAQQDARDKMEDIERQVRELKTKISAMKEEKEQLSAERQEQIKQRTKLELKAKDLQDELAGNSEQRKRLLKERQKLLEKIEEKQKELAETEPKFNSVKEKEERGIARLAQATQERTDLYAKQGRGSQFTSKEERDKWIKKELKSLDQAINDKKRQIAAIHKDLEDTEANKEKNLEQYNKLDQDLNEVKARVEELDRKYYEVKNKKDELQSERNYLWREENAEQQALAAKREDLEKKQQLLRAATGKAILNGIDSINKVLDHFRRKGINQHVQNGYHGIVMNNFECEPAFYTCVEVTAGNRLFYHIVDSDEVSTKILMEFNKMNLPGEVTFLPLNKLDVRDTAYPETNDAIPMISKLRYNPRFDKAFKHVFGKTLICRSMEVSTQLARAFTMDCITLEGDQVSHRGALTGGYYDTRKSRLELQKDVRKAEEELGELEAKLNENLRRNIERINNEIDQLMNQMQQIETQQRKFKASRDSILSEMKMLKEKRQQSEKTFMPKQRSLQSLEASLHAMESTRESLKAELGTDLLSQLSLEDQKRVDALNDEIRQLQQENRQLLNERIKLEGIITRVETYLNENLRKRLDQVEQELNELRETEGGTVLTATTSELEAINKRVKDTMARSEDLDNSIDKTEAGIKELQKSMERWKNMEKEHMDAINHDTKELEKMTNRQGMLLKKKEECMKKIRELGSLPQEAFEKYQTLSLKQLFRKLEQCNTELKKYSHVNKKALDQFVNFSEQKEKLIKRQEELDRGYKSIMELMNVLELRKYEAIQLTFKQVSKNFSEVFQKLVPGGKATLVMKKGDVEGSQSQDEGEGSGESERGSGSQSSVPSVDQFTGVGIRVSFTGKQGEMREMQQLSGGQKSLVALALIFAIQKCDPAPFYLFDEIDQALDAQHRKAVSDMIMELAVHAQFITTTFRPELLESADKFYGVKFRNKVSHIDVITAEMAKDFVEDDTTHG
# UniProt Q6KC79: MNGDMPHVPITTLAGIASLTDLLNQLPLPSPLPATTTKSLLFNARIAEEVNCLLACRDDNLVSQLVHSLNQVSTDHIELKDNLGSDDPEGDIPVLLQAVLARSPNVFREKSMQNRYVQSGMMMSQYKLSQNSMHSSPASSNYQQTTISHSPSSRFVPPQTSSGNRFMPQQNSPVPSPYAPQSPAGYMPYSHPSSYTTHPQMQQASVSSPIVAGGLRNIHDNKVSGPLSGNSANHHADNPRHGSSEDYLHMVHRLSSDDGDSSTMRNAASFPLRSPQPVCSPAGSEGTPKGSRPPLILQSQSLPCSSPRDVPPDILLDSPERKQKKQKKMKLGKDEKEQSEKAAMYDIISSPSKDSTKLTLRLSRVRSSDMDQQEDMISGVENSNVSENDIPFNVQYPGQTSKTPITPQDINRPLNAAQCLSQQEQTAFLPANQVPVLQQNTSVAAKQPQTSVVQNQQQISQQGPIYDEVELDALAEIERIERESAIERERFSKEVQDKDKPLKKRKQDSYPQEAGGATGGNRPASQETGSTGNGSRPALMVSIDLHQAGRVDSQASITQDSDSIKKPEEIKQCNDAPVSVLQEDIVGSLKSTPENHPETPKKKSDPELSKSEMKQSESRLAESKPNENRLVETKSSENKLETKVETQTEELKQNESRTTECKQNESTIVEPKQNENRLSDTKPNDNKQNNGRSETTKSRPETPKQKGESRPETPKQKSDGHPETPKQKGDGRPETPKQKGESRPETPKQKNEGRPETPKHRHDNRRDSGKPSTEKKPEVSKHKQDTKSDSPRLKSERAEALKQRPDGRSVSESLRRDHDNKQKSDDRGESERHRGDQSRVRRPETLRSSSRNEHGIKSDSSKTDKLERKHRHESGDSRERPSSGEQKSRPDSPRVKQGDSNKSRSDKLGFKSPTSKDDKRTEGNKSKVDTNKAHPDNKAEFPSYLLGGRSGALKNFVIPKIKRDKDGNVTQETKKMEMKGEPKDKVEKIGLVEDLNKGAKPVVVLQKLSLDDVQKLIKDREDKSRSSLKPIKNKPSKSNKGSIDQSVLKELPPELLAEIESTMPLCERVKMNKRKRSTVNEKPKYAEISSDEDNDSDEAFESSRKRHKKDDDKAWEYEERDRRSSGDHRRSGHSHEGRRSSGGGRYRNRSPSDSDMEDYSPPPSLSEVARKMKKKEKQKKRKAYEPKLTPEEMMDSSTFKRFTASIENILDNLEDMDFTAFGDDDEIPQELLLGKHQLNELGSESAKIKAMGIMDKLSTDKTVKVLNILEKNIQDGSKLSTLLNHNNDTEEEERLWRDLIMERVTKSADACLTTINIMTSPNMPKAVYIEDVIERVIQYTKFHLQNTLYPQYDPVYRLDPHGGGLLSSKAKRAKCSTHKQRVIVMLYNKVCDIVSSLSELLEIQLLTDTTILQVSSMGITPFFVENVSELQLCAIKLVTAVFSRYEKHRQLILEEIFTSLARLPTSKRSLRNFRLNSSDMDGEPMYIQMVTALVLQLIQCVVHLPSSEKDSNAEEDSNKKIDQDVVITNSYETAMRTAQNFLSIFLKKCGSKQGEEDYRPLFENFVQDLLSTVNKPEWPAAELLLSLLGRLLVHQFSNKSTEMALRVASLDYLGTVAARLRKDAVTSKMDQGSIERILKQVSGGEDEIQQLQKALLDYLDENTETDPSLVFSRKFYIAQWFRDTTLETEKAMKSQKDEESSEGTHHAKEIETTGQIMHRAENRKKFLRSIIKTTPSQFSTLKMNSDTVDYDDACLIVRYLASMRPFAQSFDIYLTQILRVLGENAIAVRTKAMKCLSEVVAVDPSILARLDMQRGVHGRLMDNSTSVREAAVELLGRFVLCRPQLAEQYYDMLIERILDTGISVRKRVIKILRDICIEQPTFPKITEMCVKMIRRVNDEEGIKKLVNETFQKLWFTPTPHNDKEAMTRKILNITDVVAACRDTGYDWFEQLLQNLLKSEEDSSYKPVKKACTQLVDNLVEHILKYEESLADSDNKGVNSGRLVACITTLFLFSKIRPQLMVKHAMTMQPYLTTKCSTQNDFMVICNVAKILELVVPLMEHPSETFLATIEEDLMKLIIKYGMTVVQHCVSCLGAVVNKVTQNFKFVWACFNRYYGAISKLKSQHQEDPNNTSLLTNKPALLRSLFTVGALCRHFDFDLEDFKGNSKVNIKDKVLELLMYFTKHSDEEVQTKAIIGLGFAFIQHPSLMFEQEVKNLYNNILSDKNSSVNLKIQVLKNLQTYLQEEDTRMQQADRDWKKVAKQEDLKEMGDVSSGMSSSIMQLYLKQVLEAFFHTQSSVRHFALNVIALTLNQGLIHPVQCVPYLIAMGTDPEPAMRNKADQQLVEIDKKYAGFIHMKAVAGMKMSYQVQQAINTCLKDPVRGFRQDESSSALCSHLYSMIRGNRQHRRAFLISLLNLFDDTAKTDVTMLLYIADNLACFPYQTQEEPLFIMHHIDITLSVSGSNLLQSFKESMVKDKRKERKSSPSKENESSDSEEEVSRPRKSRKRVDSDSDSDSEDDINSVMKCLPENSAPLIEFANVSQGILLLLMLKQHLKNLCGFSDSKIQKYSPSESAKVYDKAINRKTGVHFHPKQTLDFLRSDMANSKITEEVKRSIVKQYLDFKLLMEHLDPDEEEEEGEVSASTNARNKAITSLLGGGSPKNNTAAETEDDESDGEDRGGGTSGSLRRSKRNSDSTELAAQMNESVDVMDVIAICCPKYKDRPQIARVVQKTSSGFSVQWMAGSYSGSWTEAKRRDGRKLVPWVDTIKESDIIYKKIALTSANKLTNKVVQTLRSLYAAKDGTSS
# These are yes or no findings as the source states them, for the method shown. In cells and extracts the contact can be indirect. Some results given as binding are weak or reduced against the parent protein; the word gives no strength.
# B1: SMC1A (protein, UniProt Q14683 1-1233)
# chain: MGFLKLIEIENFKSYKGRQIIGPFQRFTAIIGPNGSGKSNLMDAISFVLGEKTSNLRVKTLRDLIHGAPVGKPAANRAFVSMVYSEEGAEDRTFARVIVGGSSEYKINNKVVQLHEYSEELEKLGILIKARNFLVFQGAVESIAMKNPKERTALFEEISRSGELAQEYDKRKKEMVKAEEDTQFNYHRKKNIAAERKEAKQEKEEADRYQRLKDEVVRAQVQLQLFKLYHNEVEIEKLNKELASKNKEIEKDKKRMDKVEDELKEKKKELGKMMREQQQIEKEIKEKDSELNQKRPQYIKAKENTSHKIKKLEAAKKSLQNAQKHYKKRKGDMDELEKEMLSVEKARQEFEERMEEESQSQGRDLTLEENQVKKYHRLKEEASKRAATLAQELEKFNRDQKADQDRLDLEERKKVETEAKIKQKLREIEENQKRIEKLEEYITTSKQSLEEQKKLEGELTEEVEMAKRRIDEINKELNQVMEQLGDARIDRQESSRQQRKAEIMESIKRLYPGSVYGRLIDLCQPTQKKYQIAVTKVLGKNMDAIIVDSEKTGRDCIQYIKEQRGEPETFLPLDYLEVKPTDEKLRELKGAKLVIDVIRYEPPHIKKALQYACGNALVCDNVEDARRIAFGGHQRHKTVALDGTLFQKSGVISGGASDLKAKARRWDEKAVDKLKEKKERLTEELKEQMKAKRKEAELRQVQSQAHGLQMRLKYSQSDLEQTKTRHLALNLQEKSKLESELANFGPRINDIKRIIQSREREMKDLKEKMNQVEDEVFEEFCREIGVRNIREFEEEKVKRQNEIAKKRLEFENQKTRLGIQLDFEKNQLKEDQDKVHMWEQTVKKDENEIEKLKKEEQRHMKIIDETMAQLQDLKNQHLAKKSEVNDKNHEMEEIRKKLGGANKEMTHLQKEVTAIETKLEQKRSDRHNLLQACKMQDIKLPLSKGTMDDISQEEGSSQGEDSVSGSQRISSIYAREALIEIDYGDLCEDLKDAQAEEEIKQEMNTLQQKLNEQQSVLQRIAAPNMKAMEKLESVRDKFQETSDEFEAARKRAKKAKQAFEQIKKERFDRFNACFESVATNIDEIYKALSRNSSAQAFLGPENPEEPYLDGINYNCVAPGKRFRPMDNLSGGEKTVAALALLFAIHSYKPAPFFVLDEIDAALDNTNIGKVANYIKEQSTCNFQAIVISLKEEFYTKAESLIGVYPEQGDCVISKVLTFDLTKYPDANPNPNEQ
# B2: RAD21 (protein, UniProt O60216 1-631)
# chain: MFYAHFVLSKRGPLAKIWLAAHWDKKLTKAHVFECNLESSVESIISPKVKMALRTSGHLLLGVVRIYHRKAKYLLADCNEAFIKIKMAFRPGVVDLPEENREAAYNAITLPEEFHDFDQPLPDLDDIDVAQQFSLNQSRVEEITMREEVGNISILQENDFGDFGMDDREIMREGSAFEDDDMLVSTTTSNLLLESEQSTSNLNEKINHLEYEDQYKDDNFGEGNDGGILDDKLISNNDGGIFDDPPALSEAGVMLPEQPAHDDMDEDDNVSMGGPDSPDSVDPVEPMPTMTDQTTLVPNEEEAFALEPIDITVKETKAKRKRKLIVDSVKELDSKTIRAQLSDYSDIVTTLDLAPPTKKLMMWKETGGVEKLFSLPAQPLWNNRLLKLFTRCLTPLVPEDLRKRRKGGEADNLDEFLKEFENPEVPREDQQQQHQQRDVIDEPIIEEPSRLQESVMEASRTNIDESAMPPPPPQGVKRKAGQIDPEPVMPPQQVEQMEIPPVELPPEEPPNICQLIPELELLPEKEKEKEKEKEDDEEEEDEDASGGDQDQEERRWNKRTQQMLHGLQRALAKTGAESISLLELCRNTNRKQAAAKFYSFLVLKKQQAIELTQEEPYSDIIATPGPRFHII
# Biological target: β-catenin (human (endogenous in MCF7)) (UniProt P35222)
# Assay: co-IP; 800 μg total protein extract from MCF7 cells, precleared with Dynabeads protein A; overnight at 4 °C with 7 μg β-catenin antibody coupled to Dynabeads protein A; Western blot for NIPBL, RAD21, SMC1A and SMC3; IgG-coated beads as control
row,binding,Molecule
1,binds,SMC3 (from UniProt Q9UQE7 1-1217)
2,binds,NIPBL (from UniProt Q6KC79 1-2804)
3,binds,B1
4,binds,B2
